Assay results reported in PMC6803327.

Sequences of proteins named here, by UniProt entry; tags and fusion partners are left off.
UniProt A0A0H3MD02: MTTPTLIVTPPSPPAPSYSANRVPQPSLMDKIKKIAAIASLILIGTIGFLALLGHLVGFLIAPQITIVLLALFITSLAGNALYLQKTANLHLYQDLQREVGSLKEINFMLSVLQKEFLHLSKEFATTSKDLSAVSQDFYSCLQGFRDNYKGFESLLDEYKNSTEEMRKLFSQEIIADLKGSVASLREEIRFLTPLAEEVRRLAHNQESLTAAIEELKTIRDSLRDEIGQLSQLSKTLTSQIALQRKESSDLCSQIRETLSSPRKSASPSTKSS

Target: IncA-APEX2 (C. trachomatis (serovar of the cloned gene not stated))
Assay: proximity labelling; as a1 up to the streptavidin beads; eluates read by Western blot (anti-IncA, anti-CT223, anti-LRRF1)

How did the binding turn out when “IncA (endogenous) (from UniProt A0A0H3MD02 1-273)” was run?
The binding was “binds”.

No constants are given. Whether binding was seen depends on the method and setting. In cells and extracts the contact can be indirect. These calls come from enrichment with a bait or labelling near it, and not all partners need be listed.
